Assay results reported in patent publication US9745631B2, “Methods for diagnosing and treating oncogenic kras-associated cancer” (Dana-Farber Cancer Institute, Inc., priority 2011, dated 2017).
At least one compound was matched to its structure with a doubt left.

Tested on: iKras p53L/+ cells
Test: Steady-state metabolite levels by targeted LC-MS/MS in inhibitor-treated cells
Assay type: cell-based, mouse
Details: Rapamycin 20 nM, 18 hr
Method: FIG. 43 is a bar graph showing the relative steady-state levels of the indicated metabolites measured by targeted LC-MS/MS, in iKras p53L/+ cells treated with AZD8330 (50 nM), BKM120 (150 nM), or Rapamycin (20 nM) for 18 hours. As control, cells were cultured in the presence or absence of doxycycline for 24 hours. Error bars represent SD of the mean. *p<0.05; **p<0.01.
Two independent iKras p53^L/+ tumor lines and one LSL-Kras p53^L/+ line were maintained in basal media in the presence or absence of doxycycline for 24 h. Fresh media was added 2 hours before the experiment. For metabolite collection, media from technical triplicates (in 10 cm dishes at ˜70% confluence) was fully aspirated and 4 mL of 80% (v/v) methanol was added at dry ice temperatures. Cells and the metabolite-containing supernatants were collected into conical tubes. Insoluble material in lysates was centrifuged at 2,000×g for 15 min, and the resulting supernatant was evaporated using a refrigerated speed vac. […] Ten microliters were injected and analyzed using a 5500 QTRAP hybrid triple quadrupole mass spectrometer (AB/SCIEX) coupled to a Prominence UFLC HPLC system (Shimadzu) via selected reaction monitoring (SRM) of a total of 254 endogenous water soluble metabolites for steady-state analyses of samples. […] Approximately 9-12 data points were acquired per detected metabolite. […]

Structure (SMILES): CO[C@H]1C[C@@H]2CC[C@@H](C)[C@@](O)(O2)C(=O)C(=O)N2CCCC[C@H]2C(=O)O[C@H]([C@H](C)C[C@@H]2CC[C@@H](O)[C@H](OC)C2)CC(=O)[C@H](C)/C=C(\C)[C@@H](O)[C@@H](OC)C(=O)[C@H](C)C[C@H](C)/C=C/C=C/C=C/1C [Rapamycin]
- changes in glucose metabolism: did not induce extensive changes
